The results in this text go back to US20240150422A1.

By UniProt entry, the sequences of proteins in these tests, tags left out. Where a name states a change or a piece, a line headed by the entry shows the natural chain unless it says otherwise.
UniProt Q99665: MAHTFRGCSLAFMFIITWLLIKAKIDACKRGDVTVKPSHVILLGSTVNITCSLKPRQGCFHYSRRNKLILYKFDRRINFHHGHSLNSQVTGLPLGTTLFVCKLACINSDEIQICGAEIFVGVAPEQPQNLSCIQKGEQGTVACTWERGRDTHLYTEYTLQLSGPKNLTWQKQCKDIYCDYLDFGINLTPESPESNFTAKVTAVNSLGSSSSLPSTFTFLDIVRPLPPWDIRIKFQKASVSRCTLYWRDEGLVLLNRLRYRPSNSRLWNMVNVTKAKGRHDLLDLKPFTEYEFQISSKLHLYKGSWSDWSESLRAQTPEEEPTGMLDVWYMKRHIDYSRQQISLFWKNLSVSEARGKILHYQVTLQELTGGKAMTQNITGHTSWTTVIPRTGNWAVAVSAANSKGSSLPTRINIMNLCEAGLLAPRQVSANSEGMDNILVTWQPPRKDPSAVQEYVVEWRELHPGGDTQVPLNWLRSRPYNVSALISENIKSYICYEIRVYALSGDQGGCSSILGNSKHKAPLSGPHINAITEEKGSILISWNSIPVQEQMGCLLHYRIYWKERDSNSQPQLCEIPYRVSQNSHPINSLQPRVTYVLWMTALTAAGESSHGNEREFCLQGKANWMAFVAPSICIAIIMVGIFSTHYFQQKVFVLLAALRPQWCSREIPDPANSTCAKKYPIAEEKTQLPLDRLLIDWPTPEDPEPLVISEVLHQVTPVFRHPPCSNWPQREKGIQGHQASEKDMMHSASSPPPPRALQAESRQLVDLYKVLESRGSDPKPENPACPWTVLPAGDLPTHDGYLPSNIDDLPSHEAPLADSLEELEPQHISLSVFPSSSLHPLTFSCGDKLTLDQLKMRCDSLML
UniProt P29459: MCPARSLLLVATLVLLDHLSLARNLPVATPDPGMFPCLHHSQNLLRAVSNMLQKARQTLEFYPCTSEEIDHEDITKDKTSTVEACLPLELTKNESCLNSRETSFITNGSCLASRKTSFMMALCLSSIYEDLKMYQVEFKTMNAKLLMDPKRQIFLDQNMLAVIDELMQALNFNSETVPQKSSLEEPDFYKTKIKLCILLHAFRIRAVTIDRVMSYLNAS

No constants are given. Whether binding was seen depends on the method and setting. Some results given as binding are weak or reduced against the parent protein; the word gives no strength.

Assay [1] addresses truncated form of the IL-12Rβ2 extracellular region (domains 1-3) (human) (UniProt Q99665). Description: SPR (Biacore T100), IL-12 Fc captured on protein A chip, IL-12Rβ2 domains 1-3 as analyte.
Assay [2] shares this target. Briefly: SPR (Biacore T100, 20 C); IL-12 Fc captured on a protein A chip, IL-12Rbeta2 (domains 1-3) injected at 7.8-2000 nM.
Assay [3] shares this target. Briefly: SPR as in Example 3; immobilized IL-12 Fc, IL-12Rbeta2 injected at 0.7-500 nM.

In the case of “IL-12 Fc single mutant P127A (Fc-C-terminal fusion format of Example 1) (from UniProt P29459 23-219; P29460 23-328) (Fc fusion)”, the binding result in assay [1] and in assay [2] was “binds” throughout.
In the case of “IL-12 Fc single mutant K168A (Fc-C-terminal fusion format of Example 1) (from UniProt P29459 23-219; P29460 23-328) (Fc fusion)”, the binding entry in assay [1] and in assay [2] was “binds” each time.
As for “IL-12 Fc single mutant D126A (Fc-C-terminal fusion format of Example 1) (from UniProt P29459 23-219; P29460 23-328) (Fc fusion)”, the binding result in assay [1] and in assay [2] was “binds” throughout.
For “wild-type IL-12 heterodimeric Fc fusion protein (IgG1Fc(knob)-IL12p35 / IgG1Fc(hole)-IL12p40) (from UniProt P29459 23-219; P29460 23-328)”, the binding result in assay [2] and in assay [3] was “binds” in each case.
